Measurements: paper PMC7724852
No constants are given. Whether binding was seen depends on the method and setting. Binding seen in cells or lysates may run through a third protein. Some results given as binding are weak or reduced against the parent protein; the word gives no strength.

Sequences of proteins named here, by UniProt entry; tags and fusion partners are left off.
UniProt Q62940: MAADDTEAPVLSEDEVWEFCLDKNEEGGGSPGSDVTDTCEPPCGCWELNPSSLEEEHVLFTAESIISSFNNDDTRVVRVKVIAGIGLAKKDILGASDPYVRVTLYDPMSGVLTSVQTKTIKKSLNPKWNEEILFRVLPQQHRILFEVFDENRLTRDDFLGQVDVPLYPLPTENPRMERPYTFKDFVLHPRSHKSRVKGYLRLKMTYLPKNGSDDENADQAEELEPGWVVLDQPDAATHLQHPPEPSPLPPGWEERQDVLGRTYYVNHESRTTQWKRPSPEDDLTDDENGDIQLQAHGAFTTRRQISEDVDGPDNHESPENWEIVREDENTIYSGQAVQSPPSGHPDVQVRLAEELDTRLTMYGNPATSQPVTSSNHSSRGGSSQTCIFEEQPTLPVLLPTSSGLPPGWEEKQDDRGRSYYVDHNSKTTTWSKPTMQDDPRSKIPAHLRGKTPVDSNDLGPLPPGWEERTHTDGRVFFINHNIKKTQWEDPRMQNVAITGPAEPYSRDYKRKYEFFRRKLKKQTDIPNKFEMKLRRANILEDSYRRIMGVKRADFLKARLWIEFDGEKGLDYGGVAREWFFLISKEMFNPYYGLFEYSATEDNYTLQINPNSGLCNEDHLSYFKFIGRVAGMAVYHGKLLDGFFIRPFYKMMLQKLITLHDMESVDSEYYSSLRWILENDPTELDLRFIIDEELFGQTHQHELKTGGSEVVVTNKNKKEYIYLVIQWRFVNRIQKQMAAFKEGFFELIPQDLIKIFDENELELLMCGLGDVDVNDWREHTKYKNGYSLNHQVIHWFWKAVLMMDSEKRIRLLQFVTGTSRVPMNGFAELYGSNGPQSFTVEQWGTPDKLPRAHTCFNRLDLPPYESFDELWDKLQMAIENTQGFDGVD

Target: Neural precursor cell-expressed developmentally downregulated gene 4 (rat (endogenous in HAPI)) (UniProt Q62940)
Assay: co-IP

- binding: binds
B1: Synaptosome associated protein 23 (protein, UniProt O70377 1-210)
chain: MDDLSPEEIQLRAHQVTDESLESTRRILGLAIESQDAGIKTITMLDEQGEQLNRIEEGMDQINKDMREAEKTLTELNKCCGLCVCPCNRTKNFESGKNYKATWGDGGDSSPSNVVSKQPSRITNGQPQQTTGAASGGYIKRITNDAREDEMEENLTQVGSILGNLKNMALDMGNEIDAQNQQIQKITEKADTNKNRIDIANTRAKKLIDS
